The record followed here is article PMC6317822, “RSM1, an Arabidopsis MYB protein, interacts with HY5/HYH to modulate seed germination and seedling development in response to abscisic acid and salinity” (PLoS Genetics, 2018).

These are yes or no findings as the source states them, for the method shown. For some assays here: In cells and extracts the contact can be indirect. Some results given as binding are weak or reduced against the parent protein; the word gives no strength. Tags and fused reporters may be left off the sequences shown.

For assay [1], the target named is T1, GST-HYH (HY5 HOMOLOG) (Arabidopsis) (UniProt Q8W191).
T1 sequence: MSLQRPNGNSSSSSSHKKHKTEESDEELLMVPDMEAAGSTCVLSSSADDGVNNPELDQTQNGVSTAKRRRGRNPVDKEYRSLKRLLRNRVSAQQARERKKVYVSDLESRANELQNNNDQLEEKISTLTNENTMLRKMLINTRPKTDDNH
The experiment in a line: pull-down; 2 ug GST or GST fusion protein mixed with 2 ug His-RSM1 in 500 uL GST binding buffer (50 mM Tris-HCl pH 7.5, 100 mM NaCl, 0.1% Nonidet P-40), Glutathione Sepharose 4B beads, 4 C, 2 h; four washes; immunoblot with anti-GST or anti-His; both purified. (Immunoblotting shows a protein as a band on a membrane.)

Assay [2] concerns the target T2, YFP^C-HYH (Arabidopsis) (UniProt Q8W191).
T2 sequence: T1 sequence
Briefly: split reporter; BiFC; YFP^N and YFP^C fusions co-transformed into onion epidermal cells by particle bombardment; overnight in the dark; confocal microscopy, DAPI for nuclei.

The target in assay [3] is T3, YFP^C-HY5 (Arabidopsis) (UniProt O24646).
T3 sequence: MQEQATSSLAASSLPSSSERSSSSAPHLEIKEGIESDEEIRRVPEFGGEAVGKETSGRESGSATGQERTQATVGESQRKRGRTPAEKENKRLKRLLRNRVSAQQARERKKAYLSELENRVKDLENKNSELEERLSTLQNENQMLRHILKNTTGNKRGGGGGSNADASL
The assay is described as above.

Assay [4] concerns the target T2, YFP^C-HYH (Arabidopsis). The experiment in a line: split reporter; BiFC; YFP^N and YFP^C fusions transiently co-transformed into Arabidopsis mesophyll protoplasts; overnight in the dark; confocal microscopy.
For assay [5], the target named is T3, YFP^C-HY5 (Arabidopsis). The assay is described as above.

B1: His-RSM1 (RADIALIS-LIKE SANT/MYB 1) (natural protein, Arabidopsis, UniProt Q9SIJ5 1-101, looked up)
chain: MASGSMSSYGSGSWTVKQNKAFERALAVYDQDTPDRWHNVARAVGGKTPEEAKRQYDLLVRDIESIENGHVPFPDYKTTTGNSNRGRLRDEEKRMRSMKLQ
notes: the CDS of RSM1 cloned into the BamHI and SacI sites of pET28a; also called MEE3; MATERNAL EFFECT EMBRYO ARREST 3; source: E. coli BL21 (pET28a-RSM1, 1 mM IPTG), purified with Ni-NTA beads
With B1, the binding entry in assay [1] is recorded as “binds”.

B2: YFP^N-RSM1 (protein, UniProt Q9SIJ5 1-101)
chain: B1 chain
For B2, the binding result with YFP^C-HYH (Arabidopsis) [2], in the assay with YFP^C-HY5 (Arabidopsis) [3], in the assay with YFP^C-HYH (Arabidopsis) [4] and with YFP^C-HY5 (Arabidopsis) [5] was “binds” in each case.
